From PubChem BioAssay AID493014 (National Center for Advancing Translational Sciences (NCATS), 2011)
The other results are listed elsewhere or left out. Further columns of the screen follow, without active or inactive calls. Compounds called inactive in the main read-out are mostly missing here. Potencies come from curve fits of mixed quality, noted in brackets.

Assay: qHTS Assay to Find Inhibitors of Chronic Active B-Cell Receptor Signaling
Conditions: ABC-DLBCL IkBa-CBG/CBR reporter, luminescence ratio (green luciferase fused to IkBa over red control in TMD8 lymphoma cells), 4 h
How it was run: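 Concentration-response series (up to 46 uM) were applied to TMD8 dual-reporter cells for 4 h at 37C with doxycycline. Green/red ratio, after filter-overlap correction, defined %Activity; red signal alone was normalised to basal cells and zero luminescence.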

[1] = measured here: CBR red luminescence, cell number

Cc1ccc(OCC(=O)c2c(O)c3ccccc3oc2=O)cc1C
AC50 [1]: 0.447 µM [falling, full curve, poor fit]

COc1ccc(C(=O)O/N=C(/C)c2cccs2)cc1
AC50 [1]: 10.3 µM [rising, partial curve, poor fit]

CC(C)Nc1nc2cccnc2s1
AC50 [1]: 17.8 µM [rising, partial curve, poor fit]

COc1ccc(NC(=O)CCNS(=O)(=O)c2cc(Br)ccc2Br)cc1S(N)(=O)=O
AC50 [1]: 7.08 µM [rising, partial curve, poor fit]

Cc1nc(COC(=O)c2cc(O)c3ccccc3c2O)cs1
AC50 [1]: 6.31 µM [falling, full curve]

O=[N+]([O-])c1ccc(/C=N/Nc2ccc3ccccc3c2)o1
AC50 [1]: 1.84 µM [rising, partial curve, poor fit]

FC(F)(F)c1nc(Oc2ccccc2)c2ccccc2n1
AC50 [1]: 29.1 µM [rising, single point]

COCCNC(=O)c1cc2c(-c3ccc(Cl)cc3)nn(C)c2s1
AC50 [1]: 29.1 µM [falling, single point]

COC(=O)c1sc(-c2ccccc2)cc1NC(=O)c1ccc(OC)cc1
AC50 [1]: 0.259 µM [rising, full curve, poor fit]

CCOC(=O)Nc1cccc(NC(=O)c2cc(OC)cc(OC)c2)c1
AC50 [1]: 2.31 µM [falling, full curve]

CNc1ncnc2ccc(-c3c(C)noc3C)cc12
AC50 [1]: 18.4 µM [rising, partial curve]

CC(=O)N1CC=C2C(C#N)=C(N)C(C#N)(C#N)C(CCc3ccccc3)C2C1 (configuration not stated)
AC50 [1]: 6.51 µM [falling, partial curve, poor fit]

CSc1nc2ccc3nc(NC(=O)C4COc5ccccc5O4)sc3c2s1 (configuration not stated)
AC50 [1]: 13 µM [falling, single point]

COc1ccccc1CN1CCN(S(=O)(=O)c2ccccc2)CC1
AC50 [1]: 2.59 µM [falling, full curve, poor fit]

CCOC(=O)CSc1nc(N)c2c3c(sc2n1)CCCC3
AC50 [1]: 18.4 µM [falling, single point]

COc1ccc(N2CCN(C(=O)COC(=O)c3ccc(Cl)nc3)CC2)cc1
AC50 [1]: 3.66 µM [rising, full curve]

COc1cc(/C=N/Nc2nc3ccccc3o2)cc(OC)c1O
AC50 [1]: 29.1 µM [falling, single point]

COc1ccccc1CNC(=O)c1cc2c(=O)[nH]c3ccccc3c2n1C
AC50 [1]: 7.08 µM [falling, full curve]

OC(CNCc1ccccc1)(c1ccc(F)cc1)c1ccc(F)cc1
AC50 [1]: 20.6 µM [falling, single point]

CC(C)CNC(=O)CCCc1c[nH]c2ccccc12
AC50 [1]: 22.4 µM [falling, single point]

CC(C)c1ccccc1NC(=S)NC1CCCCC1
AC50 [1]: 12.6 µM [rising, partial curve]

COc1ccc(NC(=O)CN2C(=O)CSc3ccc(S(=O)(=O)N(C)C)cc32)cc1OC
AC50 [1]: 3.55 µM [rising, full curve, poor fit]

Cc1ccc(NC(=O)C2CCN(S(=O)(=O)c3ccc4ccccc4c3)CC2)nc1
AC50 [1]: 29.1 µM [falling, single point]

CC1CCN(C(=O)c2cc3c(ccc4ccccc43)o2)CC1
AC50 [1]: 14.1 µM [falling, single point]

C=C1CCC[C@]2(C)C[C@H]3OC(=O)C(CNC(C)CC)[C@H]3CC12 (some centres not stated)
AC50 [1]: 17.8 µM [falling, partial curve, poor fit]

Cc1cc(C)c2c(-n3cccc3)c(NC(=O)OC(C)C)sc2n1
AC50 [1]: 11.2 µM [rising, partial curve]

COc1ccccc1-n1cc(-c2ccc([N+](=O)[O-])cc2)[nH]c1=S
AC50 [1]: 0.501 µM [rising, full curve, poor fit]

Cn1nc(C(=O)Nc2cccc(S(=O)(=O)N3CCCC3)c2)c2ccccc2c1=O
AC50 [1]: 13 µM [rising, partial curve, poor fit]

Cc1noc(C)c1C(=O)N1CCC(CO)(Cc2ccccc2)CC1
AC50 [1]: 6.31 µM [rising, single point]

CCc1cccc(NC(=O)C2CCCN2S(=O)(=O)c2cccc3cccnc23)c1 (configuration not stated)
AC50 [1]: 0.631 µM [rising, full curve, poor fit]
AC50 (measured here: IkBa-CBG green luminescence): 0.708 µM [falling, partial curve, poor fit]

Cc1nc(Nc2ccccc2C(F)(F)F)sc1C(=O)N(C)C
AC50 [1]: 2 µM [rising, partial curve]

CC(=O)N(C)Cc1ccc(C(=O)CCl)cc1
AC50 [1]: 22.4 µM [falling, single point]

CN(C)C(=O)c1cc(C(=O)c2ccc(F)cc2F)c[nH]1
AC50 [1]: 11.2 µM [falling, single point]

FC(F)(F)c1ccc(Cl)c(NC(=S)N/N=C/c2ccccc2C(F)(F)F)c1
AC50 [1]: 8.2 µM [rising, partial curve, poor fit]

CC(C)(C)c1[nH]nc2c1C(Cc1ccccc1)C(C#N)=C(N)O2 (configuration not stated)
AC50 [1]: 29.1 µM [falling, single point]

CCN(CC)S(=O)(=O)c1cc(NS(=O)(=O)c2c(Cl)cccc2Cl)ccc1C
AC50 [1]: 2.91 µM [falling, full curve, poor fit]

O=C(c1ccco1)N1CCN=C1SCc1ccccc1Cl
AC50 [1]: 3.66 µM [falling, partial curve, poor fit]

Cn1c(CN2CCOCC2)nc2cc(NC(=O)c3ccc(Cl)cc3)ccc21
AC50 [1]: 20 µM [falling, partial curve, poor fit]

O=C(Nc1ncccc1Cl)c1ccc2c(c1)OCCO2
AC50 [1]: 35.5 µM [falling, single point]

COC(=O)c1c(NC(NC(=O)CC(C)C)C(Cl)(Cl)Cl)sc2c1CCC2 (configuration not stated)
AC50 [1]: 16.4 µM [falling, single point]

CCCCCCN(C(=O)CCCCCN1C(=O)NC(c2ccc(-c3ccccc3)cc2)C(C(=O)OCc2ccccc2)=C1C)C(C(=O)NCCCC)c1ccc(OCC(=O)OC)cc1 (configuration not stated)
AC50 [1]: 20.6 µM [rising, single point]
